About 480 (0.15%) of roughly 320,000 compounds were called active. Inconclusive results, whose numbers are uncertain, are shown with a selection of clear calls. Cut-off read from the data, not from the text of the source: active = inhibition above about 26% (passing the limit was not always enough); inconclusive = no clear call, values can overlap the other calls.
target: Histone deacetylase 3 (Homo sapiens) (UniProt O15379); assay: HDAC3 deacetylase inhibitors, primary screen, biochemical, fluorescence, cell-free homogeneous (AID 2718); conditions: recombinant HDAC3, fluorogenic peptide/trypsin coupled, at 8.3 µM, active compounds read high

By UniProt entry, the sequences of proteins in these tests, tags left out. Where a name states a change or a piece, a line headed by the entry shows the natural chain unless it says otherwise.
UniProt O15379: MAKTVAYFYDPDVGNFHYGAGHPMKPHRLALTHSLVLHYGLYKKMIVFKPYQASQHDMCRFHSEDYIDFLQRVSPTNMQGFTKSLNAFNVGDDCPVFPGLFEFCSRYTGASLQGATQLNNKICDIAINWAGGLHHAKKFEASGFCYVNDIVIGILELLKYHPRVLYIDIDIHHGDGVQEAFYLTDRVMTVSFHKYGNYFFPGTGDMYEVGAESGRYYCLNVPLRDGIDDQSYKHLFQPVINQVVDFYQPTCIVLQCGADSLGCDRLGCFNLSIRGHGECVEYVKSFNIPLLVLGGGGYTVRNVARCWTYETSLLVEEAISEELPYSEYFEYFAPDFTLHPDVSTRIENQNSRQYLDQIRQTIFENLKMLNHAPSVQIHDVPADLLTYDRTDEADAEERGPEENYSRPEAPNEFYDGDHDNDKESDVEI

| Compound | inhibition |
| --- | --- |
| C/C=C(\C)CN1CCC(n2nccc2NC(=O)c2ccc3c(c2)OCO3)CC1 | inactive: 4.48% |
| O=C(NNC(=S)NCc1ccccc1)c1ccc2c(c1)OCO2 | inactive: -9.17% |
| CCN(CC(=O)O)S(=O)(=O)c1cc(Cl)ccc1Cl | inconclusive: 15.8% |
| CCOC(=O)Cc1csc(NC(=O)C2CCCN(S(=O)(=O)c3cnc[nH]3)C2)n1 (centres undefined) | inactive: 4.87% |
| Cc1cccc(NC(=O)CSc2nnc(CSc3nc(C)cc(C)n3)o2)c1 | inactive: 1.32% |
| Nc1ccccc1NC(=O)c1ccccc1 | active: 74.9% |
| COc1ccc(C(=O)CSc2cc(C)[nH]c(=O)n2)cc1 | active: 61.3% |
| O=C(CCc1ccc(S(=O)(=O)N2CCOCC2)cc1)N/N=C/c1ccc(O)c(O)c1O | inconclusive: 17.8% |
| CC1CCCCN1S(=O)(=O)c1ccc(S(=O)(=O)NCCc2ccncc2)cc1 (centres undefined) | inconclusive: 16.6% |
| CN(C)S(=O)(=O)N1CCc2ccc(NC(=O)c3ccc(C(F)(F)F)cc3)cc2C1 | inactive: 9.06% |
| O=C1C=C(c2ccc3[nH]ccc3c2)CCC1 | inconclusive: 18.3% |
| CC(C)c1ccc(NC(=O)C(=O)c2cn(CC(=O)N3CCCCC3)c3ccccc23)cc1 | inactive: 2.16% |
| O=C(NCCNc1ccc([N+](=O)[O-])cc1)c1cccc(Br)c1 | inconclusive: 15.6% |
| CCOc1ccc(OCCSc2nc(C)cc(=O)[nH]2)cc1 | inactive: -4.46% |
| O=S(=O)(c1cccs1)N1CCc2ccccc2C1 | inconclusive: 19.6% |
| c1ccc2c(c1)NC(c1ccncc1)n1c-2nc2ccccc21 (centres undefined) | inactive: -22% |
| COc1ccc(O)c(C(=O)c2cc(C(=O)NCCc3ccccc3)c(=O)n(CCc3ccccc3)c2)c1 | inconclusive: 15.8% |
| OC1(c2cccc(C(F)(F)F)c2)CCN(Cc2nnnn2Cc2ccccc2)CC1 | inactive: 12.9% |
| Clc1cccc(-c2ccnc3nc(-n4cccc4)nn23)c1 | inactive: -2.82% |
| CC(C)C(=O)Nc1cccc(-c2cnc3ccccc3n2)c1 | inactive: 2.5% |
| COc1ccc(CCC(C)Nc2cccc(C)c2)cc1 (centres undefined) | inconclusive: 25.6% |
| COc1ccccc1N1CCN(C(=O)c2n[nH]c3ccccc23)CC1 | inconclusive: 19.8% |
| Cc1cc(C)c2c(c1)NC(C(=O)O)C1CC=CC21 (centres undefined) | inactive: 3.4% |

| Compound | inhibition |
| --- | --- |
| Cc1ccc(C(=O)NCCNC(=O)COc2ccc(C)c(C)c2)cn1 | inactive: -0.268% |
| C=CCN(c1ccccc1)S(=O)(=O)c1cccc(C(=O)Nc2ncccc2C)c1 | inconclusive: 22% |
| CSc1cccc(NS(=O)(=O)c2cn(C)cn2)c1 | inactive: 0.92% |
| COc1cc(C(=O)NC(=S)NNC(=O)c2ccc3c(c2)OCO3)cc(OC)c1OC | inconclusive: 19.9% |
| O=C(O)/C=C/C(=O)Nc1ccc(O)cc1 | inconclusive: 9.55% |
| Cc1cccc(-n2ncc3c2CCCC3NC(=O)CN2CCOC2=O)c1C (centres undefined) | inconclusive: 19% |
| O=C(O)COc1ccccc1/C=N/Nc1ccc(S(=O)(=O)Nc2ccc(Cl)cc2)cc1[N+](=O)[O-] | inconclusive: 21.2% |
| Cc1ccccc1NCCC(=O)Nc1ccc(F)cc1 | inactive: -3.58% |
| Cc1ccc(SCC(=O)NC2CCS(=O)(=O)C2)cc1C (centres undefined) | inactive: -10.2% |
| COc1ccc(Cn2cc3c(-c4ccc(F)cc4)nnc-3c3cc(OC)c(OC)cc32)cc1 | inconclusive: 28.4% |
| O=C(CSc1ncnc2ccccc12)c1cccs1 | inconclusive: 30.1% |
| CCCCN(Cc1ccccc1)C(=O)c1cnc2n(c1=O)CCS2 | inconclusive: 27.2% |
| Cc1ccc(-n2nnc3c(=O)n(CC(=O)NCc4ccco4)cnc32)cc1 | inconclusive: 24.9% |
| COCCNC(=O)CSCc1nc(-c2ccc(SC)cc2)oc1C | inconclusive: 6.74% |
| CCOc1ccc(-c2nnn(CC(=O)NCc3ccc(F)cc3)n2)cc1OCC | inconclusive: 14% |
| O=S(=O)(NCCS(=O)(=O)N1CCN(c2ccccc2)CC1)c1ccccc1 | inactive: -3.86% |
| Cc1ccc(NC(=O)Cc2csc(-c3ccccc3)n2)cc1F | inconclusive: 25.1% |
| C/C(=N\Nc1nc2ccccc2[nH]1)c1ccc2c(c1)OCCO2 | inconclusive: 26% |
| CCOC(=O)Cc1csc(NC(=O)CSc2nc(C)cc(=O)[nH]2)n1 | inconclusive: 23.9% |
| S=C(Nc1ccc(Br)cc1Cl)N1CCCC1 | inconclusive: 17.7% |
| CN(c1ccc(Br)cc1)S(=O)(=O)c1ccc2[nH]cc(C(=O)NCCN3CCOCC3)c(=O)c2c1 | inactive: -0.836% |
| O=C1NC2(CCC3(CC2)OCCO3)NN1c1ccccc1 | inconclusive: 16% |
| C=CCNC(=O)c1ccc(-n2cccc2)cc1 | inconclusive: 10.7% |

| Compound | inhibition |
| --- | --- |
| COc1ccc(N2CSC3=C(C#N)C(c4cccc(OC)c4OC)CC(=O)N3C2)cc1 (centres undefined) | active: 55.9% |
| CCCc1cc(=O)[nH]c(SCC(=O)Nc2ccc(OC(F)F)cc2)n1 | inconclusive: 29.1% |
| CCOC(=O)Cc1csc(NC(=O)c2csc(C)c2)n1 | inconclusive: 34.4% |
| COc1ccc(-c2cc3c(=O)n(CC(=O)NCCN4CCCC4)nc(C)n3n2)cc1 | inactive: -5.58% |
| CSc1ccc(CN2CCN(C(=O)c3ccc([N+](=O)[O-])cc3)CC2)cc1 | inconclusive: 18.4% |
| Cc1ccc(CN2C(=O)N/C(=C/c3ccc(-c4ccc(C(=O)O)cc4)o3)C2=O)cc1 | inactive: -11.9% |
| CCCc1nc(SCc2ccccn2)c2c(=O)n(C)c(=O)n(C)c2n1 | inconclusive: 16.7% |
| O=S(=O)(CCSc1nc2ccccc2o1)c1nc2ccccc2s1 | inconclusive: 11.2% |
| COc1ccc(NC(=O)n2nc(OC(=O)c3cccs3)cc2N)cc1 | inconclusive: 25.1% |
| CN(C)S(=O)(=O)Oc1ccsc1C(=O)Nc1ccc(Cl)cc1 | inconclusive: 21.9% |
| COc1ccc(S(=O)(=O)N2CCCC2C(=O)Nc2ccc(C(C)=O)cc2)cc1 (centres undefined) | inconclusive: 14.5% |
| COc1cc(CN2CCCC(CCC(=O)NCc3ccc(C)o3)C2)cc2c1OCO2 (centres undefined) | inconclusive: 19.7% |
| O=C(O)c1ccc(O)c(N2C(=O)Nc3ccccc3N2O)c1 | inconclusive: 15.8% |
| CN(C(=O)C1CCN(S(=O)(=O)c2ccccc2[N+](=O)[O-])CC1)C1CCCCC1 | inconclusive: 13.7% |
| COc1ccc(C(=O)/C=C/Sc2nc3ccccc3o2)cc1 | inactive: 4.75% |
| COC(=O)c1ccc(OC(=O)CCS(=O)(=O)c2ccc(C)cc2)cc1 | inactive: -8.11% |
| CC(CSc1nc2ccccc2s1)Cn1c(N2CCCC2)nc2c1c(=O)[nH]c(=O)n2C (centres undefined) | inactive: 8.52% |
| CS(=O)(=O)c1ccc(C(=O)OCC(=O)N2CCCc3ccccc32)cc1 | inconclusive: 13.8% |
| COc1ccccc1CNC(=O)COC(=O)c1cc([N+](=O)[O-])ccc1N1CCOCC1 | inconclusive: 20.5% |
| C=C1C(=O)O[C@@H]2C[C@@H](C)[C@@H]3C=CC(=O)[C@@]3(C)[C@@H](OC(C)=O)[C@H]12 | inconclusive: 21.9% |
| CC1N(C)c2cc(NC(=O)c3ccco3)c(P(=O)(Nc3ccc([N+](=O)[O-])cc3)N3CCOCC3)cc2C1(C)C (centres undefined) | inconclusive: 25.6% |
| CCCCC1=NN(C(=O)c2ccco2)C(O)(C(F)(F)F)C1 (centres undefined) | inactive: 0.788% |
| CC(=O)Nc1ccc2c(c1)N(S(=O)(=O)c1cccs1)CCC2 | inconclusive: 17.6% |

| Compound | inhibition |
| --- | --- |
| NC(=O)SCC(=O)Nc1ccc(Cl)cc1 | inconclusive: 18.7% |
| C1=C(C(c2nnnn2C2CCCCC2)N2CCCCC2)COc2ccccc21 (centres undefined) | inconclusive: 21% |
| O=C(O)CC1S/C(=N/N=C/C=C/c2ccccc2)NC1=O (centres undefined) | inconclusive: 17.6% |
| O=C(CSc1nnc(Nc2ccccc2F)s1)NC1CCS(=O)(=O)C1 (centres undefined) | inconclusive: 13.3% |
| CC(=O)Nc1ccc(NC(=O)COc2cc(C)cc3oc(=O)cc(C)c23)cc1 | inconclusive: 11.8% |
| COc1ccc(C(=O)CN2CCN(CCN3C(=O)c4cccc5cccc(c45)C3=O)CC2)cc1 | inactive: -5.59% |
| COc1cccc(Nc2ncccc2C(=O)Nc2ccccc2)c1 | inconclusive: 19.5% |
| Cc1ccc(C(=O)c2c(NC(=O)c3cccnc3)sc3c2CCCC3)cc1 | inconclusive: 19.9% |
| CC(C)(O)C#Cc1ccc(CN2CCC(n3nccc3NC(=O)C3CC3)CC2)cc1 | inconclusive: 27.9% |
| CC(=O)c1cc2c(cc1N/C(=N/S(=O)(=O)c1ccc(C)cc1)c1ccccc1)OCO2 | inactive: 3.2% |
| COc1ccc(CC(=O)NCCS(=O)(=O)N2CCN(c3ccccc3)CC2)cc1OC | inconclusive: 22% |
| COC(=O)C(/C=N/OCc1ccc([N+](=O)[O-])cc1)NC(=O)c1ccccc1 (centres undefined) | active: 43.7% |
| CC(C)CNC(=O)CN1c2cccc3cccc(c23)S1(=O)=O | inactive: -5.7% |
| O/N=C1\CC/C(=N\O)c2nn(-c3ccc(Cl)cc3Cl)nc21 | inconclusive: 15.6% |
| Cc1ccc(C)c(S(=O)(=O)N/N=C2/CCCc3ccccc32)c1 | inconclusive: 30.2% |
| Cc1noc(C(=O)Nc2sc3c(c2C#N)CCC3)c1Cl | inactive: 12.6% |
| CCNc1nc(NC(C)C)nc(N(C#N)CCOc2ccc(Cl)cc2Cl)n1 | inconclusive: 25.4% |
| Cc1c(C(=O)N(Cc2nccn2C)C(C)C)oc2c(F)cccc12 | inconclusive: 14.4% |
| Cc1c(NS(=O)(=O)c2ccc(NC(=O)CCC(=O)O)cc2)c(=O)n(-c2ccccc2)n1C | inactive: -0.672% |
| COc1ccc(-c2ccc(=O)n(CC(=O)NC3CCc4ccccc43)n2)cc1OC (centres undefined) | inconclusive: 16.5% |

Reference: PubChem BioAssay AID2718 (Broad Institute, 2010)
